The text below walks through data of paper PMC4890305.

This assay deals with T1, human TRIM31 (tripartite motif), Myc-tagged (human) (UniProt Q9BZY9).
T1 sequence: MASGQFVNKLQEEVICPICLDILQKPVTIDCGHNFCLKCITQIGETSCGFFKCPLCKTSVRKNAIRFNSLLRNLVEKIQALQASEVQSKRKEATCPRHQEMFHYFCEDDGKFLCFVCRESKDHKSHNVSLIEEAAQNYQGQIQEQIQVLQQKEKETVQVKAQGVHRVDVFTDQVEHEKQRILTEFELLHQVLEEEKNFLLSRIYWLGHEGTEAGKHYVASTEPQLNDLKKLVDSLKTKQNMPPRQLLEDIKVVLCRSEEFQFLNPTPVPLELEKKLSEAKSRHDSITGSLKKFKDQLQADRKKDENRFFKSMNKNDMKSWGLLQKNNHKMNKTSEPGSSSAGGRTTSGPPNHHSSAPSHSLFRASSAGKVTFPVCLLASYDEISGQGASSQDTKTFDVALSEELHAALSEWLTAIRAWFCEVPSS
Kind of assay: co-IP; HEK293T cells expressing TRIM31-Myc or HA-NDP52 lysed with 0.5% NP-40 in PBS; immunoprecipitated with anti-Myc antibody and protein G-Sepharose at 4 °C, washed with 0.1% NP-40/PBS; immunoblot with anti-HA antibody.

Results are given in words; binding and its absence hold for the method and conditions named. Binding seen in cells or lysates may run through a third protein. Some results given as binding are weak or reduced against the parent protein; the word gives no strength. Where a sequence is shown, tags or fusion partners need not be part of it.

B1: human NDP52, HA-tagged (protein, UniProt Q13137 1-446)
chain: MEETIKDPPTSAVLLDHCHFSQVIFNSVEKFYIPGGDVTCHYTFTQHFIPRRKDWIGIFRVGWKTTREYYTFMWVTLPIDLNNKSAKQQEVQFKAYYLPKDDEYYQFCYVDEDGVVRGASIPFQFRPENEEDILVVTTQGEVEEIEQHNKELCKENQELKDSCISLQKQNSDMQAELQKKQEELETLQSINKKLELKVKEQKDYWETELLQLKEQNQKMSSENEKMGIRVDQLQAQLSTQEKEMEKLVQGDQDKTEQLEQLKKENDHLFLSLTEQRKDQKKLEQTVEQMKQNETTAMKKQQELMDENFDLSKRLSENEIICNALQRQKERLEGENDLLKRENSRLLSYMGLDFNSLPYQVPTSDEGGARQNPGLAYGNPYSGIQESSSPSPLSIKKCPICKADDICDHTLEQQQMQPLCFNCPICDKIFPATEKQIFEDHVFCHSL
For B1, the binding entry was “binds”.
